PMC7819943, “Rice protein-binding microarrays: a tool to detect cis-acting elements near promoter regions in rice”
Some of the results follow.

These sequences were tested against T1, OsSMF1 (Oryza sativa, UniProt Q6ZLB0 1-436) (assay: protein-binding microarray (RPBM); PBS, 2% BSA, 51.3 ng/ul salmon testes DNA, 50 uM zinc acetate, 200 nM TF, 25 C, 1 h; high values mean tight binding). Details: protein: recombinant; tags: N-terminal polyhistidine and DsRed monomer fusion (pET32a); chain copies: 2; label: CyDye5-dUTP incorporated in the synthesized complementary strand; 3' TTTTT single-stranded linker to array surface; dsDNA, one strand shown.
T1 sequence: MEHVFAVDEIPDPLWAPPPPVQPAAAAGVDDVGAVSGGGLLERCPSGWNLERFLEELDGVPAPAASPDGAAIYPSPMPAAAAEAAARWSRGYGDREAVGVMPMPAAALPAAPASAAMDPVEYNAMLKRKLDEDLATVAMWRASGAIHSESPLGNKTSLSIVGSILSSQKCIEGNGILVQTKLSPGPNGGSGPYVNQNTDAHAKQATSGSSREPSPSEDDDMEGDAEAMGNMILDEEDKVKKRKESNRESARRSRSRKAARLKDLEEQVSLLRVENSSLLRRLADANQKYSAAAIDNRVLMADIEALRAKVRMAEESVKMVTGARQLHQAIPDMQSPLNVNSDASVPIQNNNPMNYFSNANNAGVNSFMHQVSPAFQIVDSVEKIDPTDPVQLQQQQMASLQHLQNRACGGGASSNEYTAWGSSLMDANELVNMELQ
Method in brief: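 Binding signal is reported as fluorescence intensity per feature (arbitrary units) from an Axon 4000B scanner. Incubation used 200 nM of each Ni–NTA-purified, N-terminally polyhistidine- and DsRed-fused transcription factor from E. coli BL21-CodonPlus on a double-stranded custom Agilent array for 1 h at 25 °C, with 50 µM zinc acetate in the buffer, followed by washing.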

Sequence	binding signal
ACAAACGATATACGTATATCCACGCAACGAAAGATTTGTTCGGAGTCACCTAGTGCAG	3460 fluorescence intensity (a.u.)
GACTAATTGGTGGATGCATGAACCGACGTGTCGATTTTCACGGAGTCACCTAGTGCAG	4510 fluorescence intensity (a.u.)
GGCTCGCAGAAAGGCGGACGACAAGGGCTCAGCAGGGTCACGGAGTCACCTAGTGCAG	39500 fluorescence intensity (a.u.)
ACCAACAGGGCCGGCCCACGAGCCGCCACGCCGCACGCGACGGAGTCACCTAGTGCAG	3230 fluorescence intensity (a.u.)
CCCATTATCCATAAGTTAACATATACTCCCTCCGTCATAGCGGAGTCACCTAGTGCAG	3800 fluorescence intensity (a.u.)
TACAATTAGACAATTAATTATTTCGGTAGAGACTGGAAACCGGAGTCACCTAGTGCAG	22300 fluorescence intensity (a.u.)
CAAGGGCGGCAAGCCGACGTGGCACACGGCGCGCTGGACGCGGAGTCACCTAGTGCAG	6950 fluorescence intensity (a.u.)
TCACCCACCACCCTTCCCTTACCCACTCACTGACACGTGGCGGAGTCACCTAGTGCAG	11800 fluorescence intensity (a.u.)
GCTTGCACAACTAGTGCATCCCTGTCACTGTTTGGCTAGCCGGAGTCACCTAGTGCAG	3600 fluorescence intensity (a.u.)
AAGCTTCGCCGCCACTCGAGCCCGCCACGTCGACATCACCCGGAGTCACCTAGTGCAG	17200 fluorescence intensity (a.u.)
ACTGTAGCACCACATTGTTAAATCATGACGCAATTAGGCTCGGAGTCACCTAGTGCAG	5020 fluorescence intensity (a.u.)
TTTCGGGATCCGACACGGGCTGAATCCGGCCCATCCAAACCGGAGTCACCTAGTGCAG	37800 fluorescence intensity (a.u.)
GCGCGTGACATCATCTGGTACGAACCAAACAACCCCTGCACGGAGTCACCTAGTGCAG	8460 fluorescence intensity (a.u.)
CTCAATTATATATGACTCATGTGTAGTAATAAAACTTATACGGAGTCACCTAGTGCAG	3470 fluorescence intensity (a.u.)
ATTCTCTTGCACTTATTCCAGCCTACAGGGACAGTAAATCCGGAGTCACCTAGTGCAG	37200 fluorescence intensity (a.u.)
GAAAGCAAATAATGAACTCAAATCAAATAGCGTCATATGGCGGAGTCACCTAGTGCAG	3390 fluorescence intensity (a.u.)
GCGGCGCGAAACCGCACATGGGCTCCACGTGCTAAGAACACGGAGTCACCTAGTGCAG	4100 fluorescence intensity (a.u.)
AGAAGGTTGGAATTTAGTAAGTTGCAGTTACAAATTCAAGCGGAGTCACCTAGTGCAG	53200 fluorescence intensity (a.u.)
CAAGGATTGGGCATTTTGGAGTGTTGATCTTGTGGGAGGACGGAGTCACCTAGTGCAG	33400 fluorescence intensity (a.u.)
GCATATTTGGACCAAGTCAACCTGCCACATCAGCATAAACCGGAGTCACCTAGTGCAG	23500 fluorescence intensity (a.u.)
CGCCAGGTTCGCGTCGCCGACGTGCCCTACGCCGCTGCTGCGGAGTCACCTAGTGCAG	4160 fluorescence intensity (a.u.)

Sequence	binding signal
CTCGGCAACTATTCAACGAAATCCACGTGCTTCGCCACCCCGGAGTCACCTAGTGCAG	5980 fluorescence intensity (a.u.)
CTCCCACATGCTGCGCTCTGTCACCGCAACCACCGCAGCACGGAGTCACCTAGTGCAG	3760 fluorescence intensity (a.u.)
CAGTGACATGTGTGTGCTTCCCATCTGTGTACTCCAATCTCGGAGTCACCTAGTGCAG	4660 fluorescence intensity (a.u.)
CCTTGTGTGCACTTCCCCGCGTAACCGCAGCCACCGTCACCGGAGTCACCTAGTGCAG	3230 fluorescence intensity (a.u.)
CAAGTTATTTTACTCATTCATCACGTGTGACACATATAACCGGAGTCACCTAGTGCAG	4200 fluorescence intensity (a.u.)
CTAACTATATTTTGATTTTGCCAGCTCCGCAAAAGAATTGCGGAGTCACCTAGTGCAG	4050 fluorescence intensity (a.u.)
GTTAGTGCCACGTGGCGCCTTCCCATTCGACCGCCGCCCGCGGAGTCACCTAGTGCAG	42100 fluorescence intensity (a.u.)
ACCCTGCGTGGCCATGATGTCATGGCCGGCCGGCAAGCTTCGGAGTCACCTAGTGCAG	11300 fluorescence intensity (a.u.)
AGGCAGTGAAGATTGGAGTTGTTGGTACACGACTTCACTCCGGAGTCACCTAGTGCAG	3690 fluorescence intensity (a.u.)
ATGCGCACGTACCACGTACACGCATGCACACGTACGTACACGGAGTCACCTAGTGCAG	5400 fluorescence intensity (a.u.)
CCAGTGACTGACTTGGACACGGTGCAGTCCTCCAGCTGCTCGGAGTCACCTAGTGCAG	5460 fluorescence intensity (a.u.)
CCCACCGACCATACAGACACTTGTCCCGTGCTTACATCGGCGGAGTCACCTAGTGCAG	3390 fluorescence intensity (a.u.)
GGCGACGACATCTTGGCGCGTGTTGTGGCGACGATGGGGACGGAGTCACCTAGTGCAG	3630 fluorescence intensity (a.u.)
ATACTAGTTTCATGCCCGCGTGTTGCTGCAGGATTTTGTGCGGAGTCACCTAGTGCAG	3590 fluorescence intensity (a.u.)
CTCACCAAACACTGCGTGCTGACGTAATCAGCACGTACTACGGAGTCACCTAGTGCAG	7760 fluorescence intensity (a.u.)
AACTATAGACATGTAAATTTTCTTTATTGAGTCACATAATCGGAGTCACCTAGTGCAG	3820 fluorescence intensity (a.u.)
TTCCCCTCCGGCAGCCGGCCTCCTCCAATCCATTGACCTCCGGAGTCACCTAGTGCAG	17900 fluorescence intensity (a.u.)
GCTTTCATATGGATCAATGTGCACGTGTTTATATGAATGCCGGAGTCACCTAGTGCAG	5580 fluorescence intensity (a.u.)
TTCCGTGGTTGGGAGCGCGTCCACGTCGCGCGCCCCGCGTCGGAGTCACCTAGTGCAG	4800 fluorescence intensity (a.u.)
ATCTTCCTCCTCTGGGGCTGCTGAGCTGACTCCATCGATCCGGAGTCACCTAGTGCAG	3780 fluorescence intensity (a.u.)
CGGCGGCGGGTCAAAGCAAGCGTGGGATTAGGAGGTGGCGCGGAGTCACCTAGTGCAG	3810 fluorescence intensity (a.u.)

Sequence	binding signal
CTTAGCTGTATATAGGTGACGTCGATGTGTGATGGTGGAACGGAGTCACCTAGTGCAG	5420 fluorescence intensity (a.u.)
GCGCGACGCGACGTGACGCGTCCACACTATCCCTAGCATGCGGAGTCACCTAGTGCAG	7810 fluorescence intensity (a.u.)
CCCTGCTGTTGCTGCCCCTGTGGCATATATACCCCTACTGCGGAGTCACCTAGTGCAG	3800 fluorescence intensity (a.u.)
GGGTGTGCGTTCGATGATTGGACGTAATAGTCAACGAGATCGGAGTCACCTAGTGCAG	25100 fluorescence intensity (a.u.)
TTAAAATGAAACTCATGGCCATGCTTAAAATGGAACGGAACGGAGTCACCTAGTGCAG	11100 fluorescence intensity (a.u.)
GCTAGTTCATCCTGTCGCCAACGTGCCAGTCTCTGTCTGACGGAGTCACCTAGTGCAG	3770 fluorescence intensity (a.u.)
GGAAGTTGCTACGTACCGACGCCAGCTGGACTTTGTACTCCGGAGTCACCTAGTGCAG	3420 fluorescence intensity (a.u.)
GAATTGGGCCGAACGATCTACGTGGGCCGAATTGGGCCCACGGAGTCACCTAGTGCAG	3870 fluorescence intensity (a.u.)
AGTTCATTATCATCATGTAATGAATCATCATGAATCCAAACGGAGTCACCTAGTGCAG	3280 fluorescence intensity (a.u.)
TGCGGATCTAATTGCCACGTAAGCGCCACGACAATGACACCGGAGTCACCTAGTGCAG	16800 fluorescence intensity (a.u.)
ACACATGTTATAGACACGTGTGGACCCACATGTTATTGAGCGGAGTCACCTAGTGCAG	7440 fluorescence intensity (a.u.)
AGCAGCGGTGGCTGTGGCGATACGTGGCAGGAGTGGCAACCGGAGTCACCTAGTGCAG	11900 fluorescence intensity (a.u.)
AATGACAGACACGCCGCATCGCCCCTCGTTGGGCCGCCACCGGAGTCACCTAGTGCAG	3170 fluorescence intensity (a.u.)
ACGGCCCAAGCCAAGCACACGTCAACAAGTCTCGCGTTTCCGGAGTCACCTAGTGCAG	7360 fluorescence intensity (a.u.)
GAGCTCTACGGCGACGTCGTGCTCCGCTTCGTCAGCCACCCGGAGTCACCTAGTGCAG	3360 fluorescence intensity (a.u.)
GAGACGACTCGCCGACCACCGTCCGTTCTACCTATAAATCCGGAGTCACCTAGTGCAG	3740 fluorescence intensity (a.u.)
ATAATGGTTAACTTACACACTCTGCATCAGTGATCCTGGTCGGAGTCACCTAGTGCAG	3790 fluorescence intensity (a.u.)
ATGGGATGCGAAGGAGACGTTGCCACGTTGGACGTGTGCACGGAGTCACCTAGTGCAG	13900 fluorescence intensity (a.u.)
ATTCATAGATCAGTGAATGTAGTGTATGAAGTTATAGTGGCGGAGTCACCTAGTGCAG	4350 fluorescence intensity (a.u.)
TTGAATCCTCATCATCATCGCCTTAATTGCATCGGTTAATCGGAGTCACCTAGTGCAG	3240 fluorescence intensity (a.u.)
ACTCATGCGGCCTTGGGAGTTCAGGGTGCAATGACGCATACGGAGTCACCTAGTGCAG	4820 fluorescence intensity (a.u.)

Sequence	binding signal
CCAAGCCTTCTGCTTGTGATTTGAACCTTCAGTGGGTACCCGGAGTCACCTAGTGCAG	24300 fluorescence intensity (a.u.)
TTAACTTCAACAGCCCAACCCACGGTAGCTCTTTTAGGTGCGGAGTCACCTAGTGCAG	24400 fluorescence intensity (a.u.)
CTAACACGTGACACACAGCGGGCACGTCACCCAAACGGGCCGGAGTCACCTAGTGCAG	13900 fluorescence intensity (a.u.)
ATCTCGCCTCCACGTCCTCGTCGCTCACAACGCGACACACCGGAGTCACCTAGTGCAG	6670 fluorescence intensity (a.u.)
CCTCCCCTGGTGAGAGAGAGCATAGTCACTACACCAACACCGGAGTCACCTAGTGCAG	3200 fluorescence intensity (a.u.)
ACCGGCTGCCTCTGTCGACACGCCGCCAGCCTGCAGCCGTCGGAGTCACCTAGTGCAG	4370 fluorescence intensity (a.u.)
CCTCCCGCCACGGTCACTACACACGTCGTAGTAGTGTAGTCGGAGTCACCTAGTGCAG	4000 fluorescence intensity (a.u.)
TCATCAATTCCGGTGAGGATATCGCCGGATCGACGCGCCGCGGAGTCACCTAGTGCAG	26300 fluorescence intensity (a.u.)
GACAGAATTAGCCCACGTGACAGGGCATAATTAATATATACGGAGTCACCTAGTGCAG	3320 fluorescence intensity (a.u.)
CTCTACGTACACGAAACTTCCAACACGTAGTCGCCTTAACCGGAGTCACCTAGTGCAG	4020 fluorescence intensity (a.u.)
GAGGGAAAGAGATGCAAATTGCACCCTTCATGAATCATCCCGGAGTCACCTAGTGCAG	11000 fluorescence intensity (a.u.)
GGTGCGGCCCATGACTCGGCCCAGTTCTGTGTTAGGCCTCCGGAGTCACCTAGTGCAG	3880 fluorescence intensity (a.u.)
TGGAGTAAACGATGAATACATGTTATAATAGTGTAGATTGCGGAGTCACCTAGTGCAG	65100 fluorescence intensity (a.u.)
CCACCACAGGCTGACGCCCGCGCCGGCCACAGCTAGCGCGCGGAGTCACCTAGTGCAG	3170 fluorescence intensity (a.u.)
CGCCCTCATCTTTGTATGACTCATACACACTGCCCATCAGCGGAGTCACCTAGTGCAG	10500 fluorescence intensity (a.u.)
TGGGCTCGTGTTAAGGAGTGATAATTCTTGACGATAAACTCGGAGTCACCTAGTGCAG	3650 fluorescence intensity (a.u.)
CACCGCCGCCGCCCAACTCCAATTCTTCCACCGCTTGTGTCGGAGTCACCTAGTGCAG	3350 fluorescence intensity (a.u.)
CCACCTCTAATGAAGAGGTGATTGCAACCATTCATCTCTTCGGAGTCACCTAGTGCAG	3680 fluorescence intensity (a.u.)
GCGACGGTGTTCGACGACAACTACGTGGCAACATATGGTGCGGAGTCACCTAGTGCAG	6540 fluorescence intensity (a.u.)
ATCAACGGTGAGATTATAGCATGCCACGTGGCAACCTAAGCGGAGTCACCTAGTGCAG	30400 fluorescence intensity (a.u.)
CGCCATCGATGCGTGACCACCGAGCTCGCCTCGTCCACACCGGAGTCACCTAGTGCAG	3250 fluorescence intensity (a.u.)
